We go through 1 sequence from patent US20240309385.

Data set [1] has as its system thrombin (coagulation factor II, in pooled plasma) (Homo sapiens). The data set is described as follows: inhibition of the protein. The following applies: 2'-F modified NTPs (fluoro-modified transcription; modified bases not specified); prolongs aPTT and PT clotting in human plasma; text does not say whether 2211a (SEQ 16) or 2211b (SEQ 17) was used; indirect evidence of binding; protein in an extract; dose not given here.

Data set [2] deals with thrombin (coagulation factor II, in plasma) (Mus musculus). The experiment in a line: inhibition of the protein. The following applies: 2'-F modified NTPs (fluoro-modified transcription; modified bases not specified); prolongs aPTT and PT clotting in murine plasma, increases blood loss in mouse liver laceration at 1 and 3 mg/kg; 2211a or 2211b not specified; protein in an extract; protein details: endogenous in murine plasma.

Construct, isoform or probe ends are uncertain for at least one entry.

With “GGGAGAUCGAGCGACUUCCGACUCUGGCGGUCGAUCACACAGUUCAAACGUAAUAAGCCAAUGUACGAGGCAGACGACUCGCCAGAGUCGGGAGUCGGGCUAGUCAUCAGGCACGGGAACAAAGCUGAAGUACUUACCCGUGCCUGAUGAUUAGCCGCUGGUGAAGCCUCCACGCCAGCCUCGGUCUCCCGAUCUAGGAUCGGACUGAAGGAGGCACGGUCCCAGCCGAAGUGUCUUGCGGGAACAAAGCUGAAGUACUUACCCGCAAGGCACUUUGGCUGCUAGACUGGCUGGCGGCGGUCGAUCACACAGUUCAAACGUAAUAAGCCAAUGUACGAGGCAGACGACUCGCCGCCAGCUAGUUUAGGAUUCUAGAUC”, the “functional effect of the aptamer” value in data set [1] and in data set [2] was “active” in each case.
